Reference: the supplement of paper PMC12889115
The other results are listed elsewhere or left out. Values are raw readings; no control value is given beside them.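 First-pass screen: polymyxin B was added at a level that permeabilizes the Salmonella outer membrane while sparing the inner membrane. DMSO wells, with and without polymyxin B, defined maximum growth. Because plates differed from one another, each plate's data were ranked separately and the compounds with the lowest OD600 were carried forward as hits.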

Test system: Salmonella enterica serovar Typhimurium SL1344
Experiment: bacterial growth OD600 after 18 h with compound and polymyxin B; higher = more bacterial growth (less inhibition)
Settings: 50 µM, Mueller-Hinton broth

Row | Structure (SMILES) | bacterial growth OD600 (polymyxin B 0.75 µg/mL) | bacterial growth OD600 (polymyxin B 1 µg/mL)
1 | CCNC(=O)c1cn(CC(C)C)cc(C(=O)NCC2CCCCC2)c1=O | 0.212 | –
2 | COc1ccc(F)c(CC2(CCC(=O)N3CCN(C/C=C/c4ccccc4)CC3)CCC(=O)N2)c1 (stereo unspecified) | 0.804 | –
3 | Cc1cc(CNc2ccc(-c3nc(Cc4ccccc4)no3)cn2)no1 | 0.229 | –
4 | CCn1ccnc1CN1CCC(C2CCN(CC(C)(C)C)C2)CC1 (stereo unspecified) | 0.831 | –
5 | CCOc1ccc2nc(N3CCCC(C(=O)N(CC)CCn4cccn4)C3)nc(C)c2c1 (stereo unspecified) | 0.776 | –
6 | CCOC(=O)N1CCN(C2CCCN(C3CCN(c4ccc(OC)cc4)CC3)C2)CC1 (stereo unspecified) | – | 0.93
7 | CC(C)Cc1noc(-c2ccc(N(C)CC3CCCCO3)nc2)n1 (stereo unspecified) | – | 0.905
8 | C=Cc1ccc(C(=O)N2CCCC(Nc3ccc(F)cc3)C2)cc1 (stereo unspecified) | – | 0.721
9 | CCCCN(C)C(=O)c1nc2ccccn2c1CN(C)Cc1ccc(CC)cc1 | – | 0.001
10 | COCCN1CC(C(=O)NCc2cc(F)ccc2C)CCC1=O (stereo unspecified) | – | 0.85
11 | Cc1nccn1-c1ccc(NC(=O)C2CCCN(CCCn3cccn3)C2)cc1 (stereo unspecified) | – | 0.85
12 | O=C(NCc1ccc2c(c1)OCO2)c1ccc(N2CCC(NCCCN3CCCC3=O)CC2)cc1 | 0.879 | –
13 | Cc1ccc(OCc2cc(C(=O)NCc3cn(C)nc3C)no2)cc1C | 0.691 | –
14 | COCCCN1C(=O)CC(CC(=O)N(C)Cc2n[nH]c3c2CCCC3)(c2ccccc2OC)C1=O (stereo unspecified) | 0.868 | –
15 | CCN(CC1CCN(CCc2ccccc2C)CC1)C(=O)c1cccnc1 | – | 0.864
16 | CCn1nc(C)c(CNC2CCN(c3ccc(NC(=O)CCCCc4ccccc4)cc3)CC2)c1C | 0.806 | –

Row | Structure (SMILES) | bacterial growth OD600 (polymyxin B 0.75 µg/mL) | bacterial growth OD600 (polymyxin B 1 µg/mL)
17 | CS(=O)(=O)N1CCC2(CCCN(Cc3cccc(F)c3F)C2=O)C1 (stereo unspecified) | – | 0.858
18 | Cc1cccc(C(=O)NC2CCCc3nc(-c4cccnc4)ncc32)n1 (stereo unspecified) | 0.804 | –
19 | Cc1nc(C(=O)NCc2nc(-c3ccccc3NC(=O)CC3CCCC3)oc2C)cs1 | 0.062 | –
20 | OCC1CCN(c2ncc3c(n2)CCCC3NCc2cc3ccccc3o2)CC1 (stereo unspecified) | 0.634 | –
21 | CCc1nc(C)c(CN2CCCC(CNC(=O)c3cc(OC)cc(OC)c3)C2)[nH]1 (stereo unspecified) | 0.836 | –
22 | CC(=O)NCc1ccc2[nH]c(C)c(C)c2c1 | 0.847 | –
23 | COc1ccc2c(c1)-c1nc(-n3ncc(C(=O)NCC(C)(C)N4CCOCC4)c3C)ncc1CC2 | 1.06 | –
24 | OC1CCN(c2ccc(-c3nc(-c4cccc(Cl)c4)no3)cn2)CC1 | 0.276 | –
25 | CCN(CC)C(=O)c1coc(COc2ccc(F)cc2Cl)n1 | – | 0.711
26 | CCN1CCCC1CNC(=O)CCC1CCN(C(=O)c2n[nH]c3ccccc23)CC1 (stereo unspecified) | – | 0.9
27 | O=C(CSc1ccccn1)NC1CCCN(Cc2ccc(Cl)cc2)C1 (stereo unspecified) | – | 1.1
28 | CC(=O)Nc1cc(C(=O)N2CCC(c3ccccc3Cl)C2)cc2ncn(CCc3ccccn3)c12 (stereo unspecified) | 0.884 | –
29 | CCOc1ccccc1CN1CCN(Cc2cn(C)nc2-c2ccccc2)CC1CCO (stereo unspecified) | – | 0.826
30 | CC(=O)c1ccc(OCc2cc(C(=O)NCC(C)c3ccccc3)no2)cc1 (stereo unspecified) | – | 0.875
31 | O=C(C1CCN(c2nc3nonc3nc2NCc2cccs2)CC1)N1CCCCC1 | 0.819 | –

Random excerpt: three entries already listed
Row | Structure (SMILES) | bacterial growth OD600 (polymyxin B 0.75 µg/mL) | bacterial growth OD600 (polymyxin B 1 µg/mL)
31 | O=C(C1CCN(c2nc3nonc3nc2NCc2cccs2)CC1)N1CCCCC1 | 0.819 | –
18 | Cc1cccc(C(=O)NC2CCCc3nc(-c4cccnc4)ncc32)n1 (stereo unspecified) | 0.804 | –
27 | O=C(CSc1ccccn1)NC1CCCN(Cc2ccc(Cl)cc2)C1 (stereo unspecified) | – | 1.1
